Assay results: PubChem BioAssay AID540276 (National Center for Advancing Translational Sciences (NCATS), 2011)
Several values for one entry are separate records, joined by “and”; a condition that tells them apart may be missing. Equal entries are not always repeated. Screen size: about 300,000 compounds; about 5,400 (1.8%) were called active. The shares of active, inactive and inconclusive entries below differ from those in the screen. The call rests on the fitted dose curve; tested in HEK293 cells. A potency beside an inconclusive call is a rough fit, not a confirmed value.

assay: qHTS for inhibitors of binding or entry into cells for Marburg Virus; conditions: Marburg virus pseudotyped entry inhibition, cell reporter; series mostly up to 37.8 µM
Potency means the concentration at half of the fitted maximal effect.

| SMILES | Potency |
| --- | --- |
| COc1ccc(N(CN2C(=O)c3ccccc3C2=O)C(=O)C(C)C)cc1 | inactive |
| CCC(C)NCCCCOc1ccc(Br)cc1 (stereo unspecified) | inconclusive: 11.2 µM [inhibitor, single point] |
| COc1ccccc1NC(=O)c1cnc(Nc2ccccc2OC)c2ccccc12 | inconclusive: 0.891 µM [inhibitor, full curve, poor fit] |
| CCn1c(CNc2ccc(Cl)cc2)nnc1SCC(=O)NCc1ccccc1 | inconclusive: 20.6 µM [inhibitor, single point] |
| COc1ccc(-c2[nH]c3ccccc3c2SCCNC(=O)c2ccc(S(=O)(=O)N(C)C)cc2)cc1 | inconclusive: 10 µM [inhibitor, partial curve, poor fit] |
| Cc1cc(C[n+]2ncsc2N)c2ncccc2c1 | inconclusive: 1.26 µM [activator, partial curve, poor fit] |
| Cc1ccc2[nH]c(=O)c(-c3nc4c(C)cccn4c3NCc3ccco3)cc2c1 | inconclusive: 11.2 µM [activator, single point] |
| NC(=NCCc1c[nH]c2ccccc12)NC(=O)c1ccc(F)cc1 | inconclusive: 35.5 µM [inhibitor, single point] |
| OCCC1CN(Cc2cccc(C(F)(F)F)c2)CCN1Cc1ccccc1 (stereo unspecified) | inconclusive: 5.62 µM [inhibitor, single point] |
| Cc1cccnc1NC(=O)c1ccco1 | inconclusive: 1.12 µM [inhibitor, partial curve, poor fit] |
| Cc1ccc2c(c1)cc(C(=O)NCc1ccc(F)cc1)n2C | inconclusive: 3.55 µM [inhibitor, full curve, poor fit] |
| COc1cc(NC(=O)CN(C)C2CCCCC2)c(C)cc1[N+](=O)[O-] | inconclusive: 15.8 µM [inhibitor, partial curve, poor fit] |
| CN(CC(=O)Nc1ccc(S(=O)(=O)N2CCCC2)cc1)Cc1c(F)cccc1Cl | active: 5.01 µM |
| COc1ccccc1NC(=S)N(Cc1ccco1)Cc1cc2cc(C)ccc2[nH]c1=O | active: 3.98 µM |
| CCOc1cc2[nH]c(=O)n(Cc3cccc(OC)c3)c(=O)c2cc1OCC | inconclusive: 23.1 µM [inhibitor, partial curve, poor fit] |
| COc1cc2c(cc1OC)C(c1ccc(F)cc1)N(c1ccccc1)C(=O)C2 (stereo unspecified) | inactive |
| Cc1ccccc1NC(=O)c1c(C)oc2ccc(O)c(CN3CCCC(C)C3)c12 (stereo unspecified) | inconclusive: 22.4 µM [inhibitor, single point] |
| CCc1nc(N)nc(N)c1-c1ccc(Cl)c(N=[N+]=[N-])c1 | inconclusive: 6.31 µM [inhibitor, partial curve, poor fit] and inconclusive: 3.98 µM [inhibitor, full curve, poor fit] |
| Cn1c(SCc2cccc3ccccc23)nnc1-c1ccco1 | inactive |
| Cc1cccc(N=C2NN=C(c3ccc4c(c3)OCCO4)CS2)c1 | inconclusive: 18.3 µM [inhibitor, single point] |
| COc1ccccc1N(C)S(=O)(=O)c1ccc(Cl)c(C(=O)NCC2(N(C)C)CCCCC2)c1 | inconclusive: 35.5 µM [inhibitor, single point] |

| SMILES | Potency |
| --- | --- |
| O=c1c2sc3ccccc3c2n(Cc2ccccc2F)c(=O)n1-c1ccccc1Cl | inconclusive: 3.16 µM [inhibitor, single point] |
| CN(CC(=O)Nc1ccc(F)cc1)C(=O)COC(=O)COc1ccc(C#N)cc1 | inconclusive: 31.6 µM [activator, single point] |
| CCOC(=O)c1c(C)[nH]c(C(=O)NNC(=O)c2ccccc2)c1C | inactive |
| COC(=O)c1cnn(-c2ccc(Cl)cc2)c1/C=N/NC(N)=S | inconclusive: 2 µM [inhibitor, partial curve, poor fit] |
| Clc1ccc2c(N/N=C/c3cccc(Br)c3)ccnc2c1 | inconclusive: 35.5 µM [inhibitor, single point] |
| CCn1c(C)cc(/C=C2\NC(=O)N(Cc3ccc(Cl)cc3)C2=O)c1C | inconclusive: 16.4 µM [inhibitor, partial curve, poor fit] |
| COc1ccc(S(=O)(=O)NC(C)C(=O)NCc2cccnc2)cc1C (stereo unspecified) | inconclusive: 3.55 µM [activator, partial curve, poor fit] |
| CCOc1ccc(NC(=O)CN2C(=O)NC(C)(c3ccc(OC(F)F)cc3)C2=O)cc1 (stereo unspecified) | inconclusive: 35.5 µM [inhibitor, single point] |
| CN(C)/C=N/C(=S)Nc1ccc(Cl)c(Cl)c1 | inconclusive: 35.5 µM [inhibitor, partial curve, poor fit] |
| Cc1cccc(NC(=S)NNC(=O)c2csc3c2CCC(C)C3)c1 (stereo unspecified) | inconclusive: 5.8 µM [activator, single point] |
| COc1cccc(CNc2ccc([N+](=O)[O-])cc2C)c1 | inactive |
| Cc1ccc(NC(=S)N(Cc2cccs2)Cc2cc3cc(C)ccc3[nH]c2=O)cc1 | active: 4.47 µM |
| NC(=S)NN=C1CCC(C2CCCCC2)CC1 (stereo unspecified) | inconclusive: 7.08 µM [inhibitor, partial curve, poor fit] |
| OC[C@H]1O[C@H](C#Cc2ccc(F)cc2F)C=C[C@H]1O | inconclusive: 0.168 µM [inhibitor, full curve, poor fit] |
| OCCNCCOc1ccc(Cl)c(Cl)c1 | inconclusive: 12.6 µM [activator, partial curve, poor fit] |
| CC(=O)Nc1ccccc1OCC(=O)c1cc(C)n(Cc2cccs2)c1C | inconclusive: 0.0058 µM [inhibitor, full curve, poor fit] |
| COc1cc(NC(=O)CN2C(=O)COc3ccc(S(=O)(=O)N4CCCC4)cc32)cc(OC)c1 | inactive |
| CC(C)C1C(=O)N(Cc2cn(CCC3OCCCO3)nn2)CCS(=O)(=O)N1Cc1ccc(-c2ccc(Cl)nc2)cc1 (stereo unspecified) | inconclusive: 0.28 µM [activator, full curve, poor fit] |
| O=C(Nc1cccnc1)c1ccc(CN2CCc3ccccc3C2)cc1 | inactive |
| Cc1cc(N2CCN(C(=O)Nc3ccc(F)cc3F)CC2)c2ccccc2n1 | inactive |
| COc1cc(Cl)c(C)cc1NC(=O)c1ccccc1NC(=O)CN1CCOCC1 | inconclusive: 7.94 µM [inhibitor, partial curve, poor fit] |

| SMILES | Potency |
| --- | --- |
| CN1C(=O)S/C(=C/c2cccnc2)C1=O | inconclusive: 29.1 µM [activator, single point] |
| COc1ccc(/C(N)=N/OC(=O)c2ccc(OC)c([N+](=O)[O-])c2)cc1OC | inconclusive: 11.2 µM [inhibitor, partial curve, poor fit] |
| N#CCC(=O)Nc1ccc(C(=O)OCC(=O)c2c[nH]c3ccccc23)cc1 | inconclusive: 12.6 µM [activator, single point] |
| COc1cc(C2C3=C(COC3=O)Oc3cc4c(cc32)OCO4)cc(OC)c1OC(C)=O (stereo unspecified) | inconclusive: 1.41 µM [inhibitor, partial curve, poor fit] |
| Cc1ccc2c(c1)[C@@H]1CN(C)CC[C@@H]1N2S(=O)(=O)c1ccc([N+](=O)[O-])cc1 | inconclusive: 29.1 µM [inhibitor, single point] |
| COc1cc(/C=C/C(=O)Nc2nc3ccc(S(=O)(=O)N(C)C)cc3s2)cc(OC)c1OC | inconclusive: 22.4 µM [inhibitor, single point] |
| COc1ccc(NC(=S)N(CCCN2CCCCC2)Cc2cccs2)cc1 | inconclusive: 5.62 µM [inhibitor, partial curve, poor fit] |
| CC(C)CC(=O)NC(Nc1ccc([N+](=O)[O-])cc1)C(Cl)(Cl)Cl (stereo unspecified) | inconclusive: 20.6 µM [inhibitor, single point] |
| CC(C)NCC(O)COc1ccc(CCOCC2CC2)cc1 (stereo unspecified) | inactive and inconclusive: 7.08 µM [inhibitor, full curve] |
| O=C1/C(=C\c2cccnc2)CN(Cc2ccccc2)C/C1=C\c1cccnc1 | inconclusive: 7.08 µM [inhibitor, full curve, poor fit] |
| Cc1cc(C)c2nc(N(CCCN(C)C)C(=O)c3ccc4c(c3)CCCC4)sc2c1 | inconclusive: 14.1 µM [inhibitor, partial curve, poor fit] |
| COc1ccc(NS(=O)(=O)c2cccc(C(=O)NC3CCN(Cc4ccccc4)CC3)c2)cc1 | inconclusive: 8.91 µM [inhibitor, partial curve, poor fit] |
| N=C(SC1CC(=O)N(c2ccc(F)cc2)C1=O)N1N=C(c2ccccc2)CC1c1ccccc1 (stereo unspecified) | inconclusive: 35.5 µM [activator, single point] |
| CC(=O)[C@@]1(O)CC[C@H]2[C@@H]3C[C@H](C)C4=CC(=O)C=C[C@]4(C)[C@@]3(F)[C@@H](O)C[C@@]21C | inconclusive: 6.51 µM [activator, single point] |
| Cc1ccc(NC(=O)C(=O)c2cn(CC(=O)N3CCCCC3)c3ccccc23)cc1 | inconclusive: 35.5 µM [inhibitor, single point] |
| O=C(NCCCN1CCCC(O)C1)c1cc(COc2ccc(F)cc2F)on1 (stereo unspecified) | inactive |
| Fc1ccc(Nc2nc(-c3cccc(Cl)c3)c3c(n2)-c2ccccc2OC3)cc1 | inactive |
| Cc1ccc(NC(=O)CCn2nc(-c3ccccc3)c3ccccc3c2=O)c(C)c1 | inconclusive: 22.4 µM [inhibitor, single point] |
| COc1ccc(Nc2ccc3ccccc3c2)cc1 | inconclusive: 2.24 µM [activator, partial curve, poor fit] |
